# PubChem BioAssay AID1508597, Cure First | 2020
# Purpose: 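Survival screen with siRNA in ovarian cancer cells derived from patients, with or without rucaparib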 (primary screen)
# Cell system: human ovarian carcinoma lines grown from tumours: OCI-P5x (papillary serous) and OCI-C5x (clear cell)
# Reagent: siRNA pool against human genes, 1.25 pmol siRNA per well
# Timing: 72 h or 96 h, depending on the cell culture
# Conditions: rucaparib 20 µM (about IC30) or vehicle, present until read-out
# Detection: 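Luminescent ATP-based viability assay read 72 or 96 h after transfection, depending on culture, given as normalised percent viability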
# Reading the numbers: viability, normalised: higher = more viable cells remaining
# Rule for the call: 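a well counts as a hit if its normalised viability is under 80 percent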
# Meaning of the calls: active = viability under 80%; inactive = viability 80% or more
# Shown is an unselected part of about 2,100 deposited reagents. 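Calls flag viability under 80% in either arm, not effects specific to rucaparib; the reference for percent is not stated.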 Some reagents were tested in more than one well and are listed for each. Not given: the 100% reference.
gene knocked down,PubChem SID,rucaparib or vehicle,cell line,technical replicate,"viability, normalised (%)",Outcome
SMARCC1 (SWI/SNF related BAF chromatin remodeling complex subunit C1),SID405527332,Rucaparib,OCI-C5x (clear cell),1,51.6,active
SMARCC1 (SWI/SNF related BAF chromatin remodeling complex subunit C1),SID405527332,Rucaparib,OCI-C5x (clear cell),2,43.1,active
SMARCC1 (SWI/SNF related BAF chromatin remodeling complex subunit C1),SID405527332,Rucaparib,OCI-C5x (clear cell),3,47,active
SMARCC1 (SWI/SNF related BAF chromatin remodeling complex subunit C1),SID405527332,Rucaparib,OCI-P5x (serous),1,51.1,active
SMARCC1 (SWI/SNF related BAF chromatin remodeling complex subunit C1),SID405527332,Rucaparib,OCI-P5x (serous),2,60,active
SMARCC1 (SWI/SNF related BAF chromatin remodeling complex subunit C1),SID405527332,Rucaparib,OCI-P5x (serous),3,54,active
SMARCC1 (SWI/SNF related BAF chromatin remodeling complex subunit C1),SID405527332,Vehicle,OCI-C5x (clear cell),1,50.2,active
SMARCC1 (SWI/SNF related BAF chromatin remodeling complex subunit C1),SID405527332,Vehicle,OCI-C5x (clear cell),2,52.1,active
SMARCC1 (SWI/SNF related BAF chromatin remodeling complex subunit C1),SID405527332,Vehicle,OCI-C5x (clear cell),3,54.2,active
SMARCC1 (SWI/SNF related BAF chromatin remodeling complex subunit C1),SID405527332,Vehicle,OCI-P5x (serous),1,54.7,active
SMARCC1 (SWI/SNF related BAF chromatin remodeling complex subunit C1),SID405527332,Vehicle,OCI-P5x (serous),2,67.8,active
SMARCC1 (SWI/SNF related BAF chromatin remodeling complex subunit C1),SID405527332,Vehicle,OCI-P5x (serous),3,66.4,active
CAMK2D (calcium/calmodulin dependent protein kinase II delta),SID405526427,Rucaparib,OCI-C5x (clear cell),1,50.7,active
CAMK2D (calcium/calmodulin dependent protein kinase II delta),SID405526427,Rucaparib,OCI-C5x (clear cell),1,69.9,active
CAMK2D (calcium/calmodulin dependent protein kinase II delta),SID405526427,Rucaparib,OCI-C5x (clear cell),2,61.3,active
CAMK2D (calcium/calmodulin dependent protein kinase II delta),SID405526427,Rucaparib,OCI-C5x (clear cell),2,72.3,active
CAMK2D (calcium/calmodulin dependent protein kinase II delta),SID405526427,Rucaparib,OCI-C5x (clear cell),3,52.1,active
CAMK2D (calcium/calmodulin dependent protein kinase II delta),SID405526427,Rucaparib,OCI-C5x (clear cell),3,61.2,active
CAMK2D (calcium/calmodulin dependent protein kinase II delta),SID405526427,Rucaparib,OCI-P5x (serous),1,89.8,inactive
CAMK2D (calcium/calmodulin dependent protein kinase II delta),SID405526427,Rucaparib,OCI-P5x (serous),1,68.8,active
CAMK2D (calcium/calmodulin dependent protein kinase II delta),SID405526427,Rucaparib,OCI-P5x (serous),2,78.2,active
CAMK2D (calcium/calmodulin dependent protein kinase II delta),SID405526427,Rucaparib,OCI-P5x (serous),2,76.9,active
CAMK2D (calcium/calmodulin dependent protein kinase II delta),SID405526427,Rucaparib,OCI-P5x (serous),3,56.9,active
CAMK2D (calcium/calmodulin dependent protein kinase II delta),SID405526427,Rucaparib,OCI-P5x (serous),3,73.1,active
CAMK2D (calcium/calmodulin dependent protein kinase II delta),SID405526427,Vehicle,OCI-C5x (clear cell),1,61.7,active
CAMK2D (calcium/calmodulin dependent protein kinase II delta),SID405526427,Vehicle,OCI-C5x (clear cell),1,78.6,active
CAMK2D (calcium/calmodulin dependent protein kinase II delta),SID405526427,Vehicle,OCI-C5x (clear cell),2,51.7,active
CAMK2D (calcium/calmodulin dependent protein kinase II delta),SID405526427,Vehicle,OCI-C5x (clear cell),2,59.9,active
CAMK2D (calcium/calmodulin dependent protein kinase II delta),SID405526427,Vehicle,OCI-C5x (clear cell),3,46.8,active
CAMK2D (calcium/calmodulin dependent protein kinase II delta),SID405526427,Vehicle,OCI-C5x (clear cell),3,64.1,active
CAMK2D (calcium/calmodulin dependent protein kinase II delta),SID405526427,Vehicle,OCI-P5x (serous),1,78.4,active
CAMK2D (calcium/calmodulin dependent protein kinase II delta),SID405526427,Vehicle,OCI-P5x (serous),1,80.5,inactive
CAMK2D (calcium/calmodulin dependent protein kinase II delta),SID405526427,Vehicle,OCI-P5x (serous),2,95,inactive
CAMK2D (calcium/calmodulin dependent protein kinase II delta),SID405526427,Vehicle,OCI-P5x (serous),2,78.1,active
CAMK2D (calcium/calmodulin dependent protein kinase II delta),SID405526427,Vehicle,OCI-P5x (serous),3,92,inactive
CAMK2D (calcium/calmodulin dependent protein kinase II delta),SID405526427,Vehicle,OCI-P5x (serous),3,80.7,inactive

5 consecutive entries already listed, quoted:
gene knocked down,PubChem SID,rucaparib or vehicle,cell line,technical replicate,"viability, normalised (%)",Outcome
CAMK2D (calcium/calmodulin dependent protein kinase II delta),SID405526427,Rucaparib,OCI-P5x (serous),3,73.1,active
CAMK2D (calcium/calmodulin dependent protein kinase II delta),SID405526427,Vehicle,OCI-C5x (clear cell),1,61.7,active
CAMK2D (calcium/calmodulin dependent protein kinase II delta),SID405526427,Vehicle,OCI-C5x (clear cell),1,78.6,active
CAMK2D (calcium/calmodulin dependent protein kinase II delta),SID405526427,Vehicle,OCI-C5x (clear cell),2,51.7,active
CAMK2D (calcium/calmodulin dependent protein kinase II delta),SID405526427,Vehicle,OCI-C5x (clear cell),2,59.9,active

Continued:
gene knocked down,PubChem SID,rucaparib or vehicle,cell line,technical replicate,"viability, normalised (%)",Outcome
NRG1 (neuregulin 1),SID405527091,Rucaparib,OCI-C5x (clear cell),1,37.8,active
NRG1 (neuregulin 1),SID405527091,Rucaparib,OCI-C5x (clear cell),2,31.4,active
NRG1 (neuregulin 1),SID405527091,Rucaparib,OCI-C5x (clear cell),3,44.1,active
NRG1 (neuregulin 1),SID405527091,Rucaparib,OCI-P5x (serous),1,37.8,active
NRG1 (neuregulin 1),SID405527091,Rucaparib,OCI-P5x (serous),2,51.9,active
NRG1 (neuregulin 1),SID405527091,Rucaparib,OCI-P5x (serous),3,33,active
NRG1 (neuregulin 1),SID405527091,Vehicle,OCI-C5x (clear cell),1,28.4,active
NRG1 (neuregulin 1),SID405527091,Vehicle,OCI-C5x (clear cell),2,26.8,active
NRG1 (neuregulin 1),SID405527091,Vehicle,OCI-C5x (clear cell),3,34.8,active
NRG1 (neuregulin 1),SID405527091,Vehicle,OCI-P5x (serous),1,53.3,active
NRG1 (neuregulin 1),SID405527091,Vehicle,OCI-P5x (serous),2,51.2,active
NRG1 (neuregulin 1),SID405527091,Vehicle,OCI-P5x (serous),3,70.9,active
ZDHHC15 (zDHHC palmitoyltransferase 15),SID405526646,Rucaparib,OCI-C5x (clear cell),1,48.3,active
ZDHHC15 (zDHHC palmitoyltransferase 15),SID405526646,Rucaparib,OCI-C5x (clear cell),2,73.2,active
ZDHHC15 (zDHHC palmitoyltransferase 15),SID405526646,Rucaparib,OCI-C5x (clear cell),3,55,active
ZDHHC15 (zDHHC palmitoyltransferase 15),SID405526646,Rucaparib,OCI-P5x (serous),1,52.8,active
ZDHHC15 (zDHHC palmitoyltransferase 15),SID405526646,Rucaparib,OCI-P5x (serous),2,63.1,active
ZDHHC15 (zDHHC palmitoyltransferase 15),SID405526646,Rucaparib,OCI-P5x (serous),3,37.2,active
ZDHHC15 (zDHHC palmitoyltransferase 15),SID405526646,Vehicle,OCI-C5x (clear cell),1,60.8,active
ZDHHC15 (zDHHC palmitoyltransferase 15),SID405526646,Vehicle,OCI-C5x (clear cell),2,67.8,active
ZDHHC15 (zDHHC palmitoyltransferase 15),SID405526646,Vehicle,OCI-C5x (clear cell),3,61.9,active
ZDHHC15 (zDHHC palmitoyltransferase 15),SID405526646,Vehicle,OCI-P5x (serous),1,66.4,active
ZDHHC15 (zDHHC palmitoyltransferase 15),SID405526646,Vehicle,OCI-P5x (serous),2,66.4,active
ZDHHC15 (zDHHC palmitoyltransferase 15),SID405526646,Vehicle,OCI-P5x (serous),3,43.9,active
